Data as given in PubChem BioAssay AID743454 (Peter MacCallum Cancer Centre, 2014).

- Aim: 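Search for knock-downs that restore vorinostat killing in resistant colon cancer cells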 (primary screen)
- Cell system: human HCT116-VR colon cancer cells, selected for vorinostat resistance
- Reagents: siRNA pool against human genes, 40 nM siRNA pool
- Time to read-out: vorinostat for 24 h, read-out about 72 h after transfection
- Challenge: vorinostat at 2.5 µM final
- Detection: 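Cell viability by CellTiter-Fluor and caspase 3/7 activity by luminescence, each scaled to mock wells per plate, duplicates averaged, then robust z-scored over all plates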
- Direction: viability robust z-score: higher = more viable cells than screen typical; caspase robust z-score: higher = more caspase 3/7 activity than screen typical
- Call rule: 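Hits are knock-downs in viability class RV1/RV2 or caspase class CA1/CA2, excluding ones that killed cells in the no-drug cell-count arm; hits then retested with single siRNAs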
In all, the deposit lists about 18,000 reagents; below is a part drawn at random. 450 of them (2.5%) count as active. 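Single biological run; no consistent viability z cut-off exists, so the class columns, not z-scores, define the calls.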 Entries without a mark were called inactive. Reagent sequences are not shown.

| Target gene | viability hit class | caspase hit class | viability robust z-score | caspase robust z-score |
| --- | --- | --- | --- | --- |
| GTF3C3 (general transcription factor IIIC subunit 3) | no change | no change | 0.48 | 0.05 |
| FOXI2 (forkhead box I2) | no change | no change | 1.29 | -0.68 |
| HTR1A (5-hydroxytryptamine receptor 1A) | no change | no change | -0.97 | 2.23 |
| COA6 (cytochrome c oxidase assembly factor 6) | no change | no change | 0.13 | -1.36 |
| INHBC (inhibin subunit beta C) | no change | no change | 0.05 | -0.16 |
| TRIM47 (tripartite motif containing 47) | no change | no change | 0.16 | -0.45 |
| E2F3 (E2F transcription factor 3) | no change | no change | 0.16 | 0.91 |
| RARG (retinoic acid receptor gamma) | no change | no change | -1.46 | 0.18 |
| CLASP1 (cytoplasmic linker associated protein 1) | no change | no change | 0.89 | 4 |
| XDH (xanthine dehydrogenase) | no change | no change | -1.45 | 0.28 |
| CSTL1 (cystatin like 1) | no change | no change | 0.74 | -1.06 |
| ETFDH (electron transfer flavoprotein dehydrogenase) | no change | no change | -1.18 | 0.92 |
| KIR2DL5A | no change | no change | 0.21 | -0.89 |
| SPATA22 (spermatogenesis associated 22) | no change | no change | 0.28 | 1.73 |
| ZNF417 (zinc finger protein 417) | no change | no change | 0.04 | 0.08 |
| DPEP2 (dipeptidase 2) | no change | no change | -0.2 | -0.77 |
| PPARG (peroxisome proliferator activated receptor gamma) | no change | no change | -0.57 | -1.11 |
| GATA2 (GATA binding protein 2) | no change | no change | -3.16 | 1.66 |
| GTPBP10 (GTP binding protein 10) | no change | no change | 0.79 | 1.06 |
| WRAP73 (WD repeat containing, antisense to TP73) | no change | no change | -2.09 | 2.67 |
| IFT172 (intraflagellar transport 172) | no change | no change | -1.12 | 2.64 |
| DAXX (death domain associated protein) | no change | no change | -0.18 | -0.28 |
| SLC13A5 | no change | no change | -0.79 | 2.82 |

Not a retest: entries from further up.
| Target gene | viability hit class | caspase hit class | viability robust z-score | caspase robust z-score |
| --- | --- | --- | --- | --- |
| CLASP1 (cytoplasmic linker associated protein 1) | no change | no change | 0.89 | 4 |
| XDH (xanthine dehydrogenase) | no change | no change | -1.45 | 0.28 |
| CSTL1 (cystatin like 1) | no change | no change | 0.74 | -1.06 |
| ETFDH (electron transfer flavoprotein dehydrogenase) | no change | no change | -1.18 | 0.92 |
